Assay results published in patent publication US5466858A, “Method of producing straight-chain acrylonitrile dimers” (priority 1993, dated 1995).

Key:
[1] = 7.66 millimole agent, 150° C., 6 hours, sodium carbonate; for Propionitrile selectivity / β-cyano-ethyl carboxylate selectivity: by-product
[2] = dimerization of acrylonitrile with ruthenium catalyst in presence of straight-chain dimer selectivity-enhancing agent (Table 2); settings: 7.66 millimole agent, 150° C., 6 hours, sodium propionate; for Propionitrile selectivity / β-cyano-ethyl carboxylate selectivity: by-product

O=C(O)c1c(Cl)cccc1Cl [2,6-dichlorobenzoic acid] showed an Acrylonitrile conversion [1] of 12%, a Straight-chain dimer selectivity [1] of 78% and a Propionitrile selectivity [1] of 3%. For the same compound, the β-cyano-ethyl carboxylate selectivity [1] was 13%.
Work on O=C(O)c1c(F)cccc1F [2,6-difluorobenzoic acid] yielded an Acrylonitrile conversion [1] of 10%, a Straight-chain dimer selectivity [1] of 68% and a Propionitrile selectivity [1] of 3%. The β-cyano-ethyl carboxylate selectivity [1] was 9%.
Compound O=C(O)c1ccco1 [2-Furancarboxylic acid] has an Acrylonitrile conversion [2] of 19%, a Straight-chain dimer selectivity [2] of 86% and a Propionitrile selectivity [2] of 3%. For the same compound, the β-cyano-ethyl carboxylate selectivity [2] was 6%.
Work on O=C(O)Cc1cccs1 [2-Thiophene acetic acid] yielded an Acrylonitrile conversion [2] of 11%, a Straight-chain dimer selectivity [2] of 68% and a Propionitrile selectivity [2] of 3%. The β-cyano-ethyl carboxylate selectivity [2] was 6%.
With O=C(O)c1cccs1 [2-Thiophene carboxylic acid] the Acrylonitrile conversion [2] was 20%, the Straight-chain dimer selectivity [2] was 86% and the Propionitrile selectivity [2] was 3%. For the same compound, the β-cyano-ethyl carboxylate selectivity [2] was 6%.
In the case of O=C(O)c1ccc(Cl)c(Cl)c1 [3,4-dichlorobenzoic acid], the Acrylonitrile conversion [1] is reported as 17%, the Straight-chain dimer selectivity [1] is reported as 82% and the Propionitrile selectivity [1] is reported as 3%. It also gave a β-cyano-ethyl carboxylate selectivity [1] of 11%.
Work on Cc1ccc(C(=O)O)s1 [5-Methyl-2-thiophene carboxylic acid] yielded an Acrylonitrile conversion [2] of 11%, a Straight-chain dimer selectivity [2] of 86% and a Propionitrile selectivity [2] of 3%. The β-cyano-ethyl carboxylate selectivity [2] was 6%.
Nc1ccccc1C(=O)O [Anthranilic acid] gave an Acrylonitrile conversion [1] of 11%, a Straight-chain dimer selectivity [1] of 85% and a Propionitrile selectivity [1] of 3%. For the same compound, the β-cyano-ethyl carboxylate selectivity [1] was 7%.
With O=C(O)CNC(=O)OCc1ccccc1 [N-Carbobenzyloxyglicine] the Acrylonitrile conversion [2] was 7%, the Straight-chain dimer selectivity [2] was 72% and the Propionitrile selectivity [2] was 3%. It also gave a β-cyano-ethyl carboxylate selectivity [2] of 17%.
Work on O=C(O)[C@@H]1CCCN1C(=O)OCc1ccccc1 [N-Carbobenzyloxyproline] yielded an Acrylonitrile conversion [2] of 19%, a Straight-chain dimer selectivity [2] of 86% and a Propionitrile selectivity [2] of 3%. For the same compound, the β-cyano-ethyl carboxylate selectivity [2] was 6%.
Compound CC(NC(=O)OCc1ccccc1)C(=O)O (centres unmarked) [N-Carbozenzyloxyalanine] has an Acrylonitrile conversion [2] of 9%, a Straight-chain dimer selectivity [2] of 75% and a Propionitrile selectivity [2] of 3%. For the same compound, the β-cyano-ethyl carboxylate selectivity [2] was 15%.
CNc1ccccc1C(=O)O [N-methylanthranilic acid] gave an Acrylonitrile conversion [1] of 17%, a Straight-chain dimer selectivity [1] of 83% and a Propionitrile selectivity [1] of 3%. The β-cyano-ethyl carboxylate selectivity [1] was 8%.
For O=C(O)c1ccccc1 [benzoic acid, reference compound], the Acrylonitrile conversion [1] was 12%.
Compound O=C(O)c1cccc(Cl)c1 [m-chlorobenzoic acid] has an Acrylonitrile conversion [1] of 17%, a Straight-chain dimer selectivity [1] of 80% and a Propionitrile selectivity [1] of 3%. For the same compound, the β-cyano-ethyl carboxylate selectivity [1] was 12%.
For N#Cc1cccc(C(=O)O)c1 [m-cyanobenzoic acid], the Acrylonitrile conversion [1] was 13%, the Straight-chain dimer selectivity [1] was 70% and the Propionitrile selectivity [1] was 3%. It also gave a β-cyano-ethyl carboxylate selectivity [1] of 22%.
Cc1cccc(C(=O)O)c1 [m-methylbenzoic acid, reference compound] gave an Acrylonitrile conversion [1] of 12%.
Work on O=C(O)c1cccc(C(F)(F)F)c1 [m-trifluoromethylbenzoic acid] yielded an Acrylonitrile conversion [1] of 13%, a Straight-chain dimer selectivity [1] of 82% and a Propionitrile selectivity [1] of 3%. It also gave a β-cyano-ethyl carboxylate selectivity [1] of 9%.
Work on CC(=O)c1ccccc1C(=O)O [o-acetylbenzoic acid] yielded an Acrylonitrile conversion [1] of 15%, a Straight-chain dimer selectivity [1] of 77% and a Propionitrile selectivity [1] of 3%. The β-cyano-ethyl carboxylate selectivity [1] was 15%.
For O=C(O)c1ccccc1C(=O)c1ccccc1 [o-benzoylbenzoic acid], the Acrylonitrile conversion [1] was 18%.
For O=C(O)c1ccccc1Br [o-bromobenzoic acid], the Acrylonitrile conversion [1] was 12%.
For O=C(O)c1ccccc1Cl [o-chlorobenzoic acid], the Acrylonitrile conversion [1] was 17%.
For O=C(O)c1ccccc1F [o-fluorobenzoic acid], the Acrylonitrile conversion [1] was 18%, the Straight-chain dimer selectivity [1] was 83% and the Propionitrile selectivity [1] was 3%. The β-cyano-ethyl carboxylate selectivity [1] was 9%.
For COc1ccccc1C(=O)O [o-methoxybenzoic acid], the Acrylonitrile conversion [1] was 9%, the Straight-chain dimer selectivity [1] was 81% and the Propionitrile selectivity [1] was 8%. The β-cyano-ethyl carboxylate selectivity [1] was 6%.
O=C(O)c1ccccc1-c1ccccc1 [o-phenylbenzoic acid] showed an Acrylonitrile conversion [1] of 17%, a Straight-chain dimer selectivity [1] of 82% and a Propionitrile selectivity [1] of 3%. It also gave a β-cyano-ethyl carboxylate selectivity [1] of 11%.
Work on CC(=O)c1ccc(C(=O)O)cc1 [p-acetylbenzoic acid] yielded an Acrylonitrile conversion [1] of 15%, a Straight-chain dimer selectivity [1] of 78% and a Propionitrile selectivity [1] of 3%. For the same compound, the β-cyano-ethyl carboxylate selectivity [1] was 14%.
In the case of O=C(O)c1c(F)c(F)c(F)c(F)c1F [pentafluorobenzoic acid, reference compound], the Acrylonitrile conversion [1] is reported as 8%, the Straight-chain dimer selectivity [1] is reported as 10% and the Propionitrile selectivity [1] is reported as 10%. It also gave a β-cyano-ethyl carboxylate selectivity [1] of 0%.

Read-outs that look alike come from different tables or passages of the source.
